Reference: PubChem BioAssay AID1224830 (NIAID, 2016)
Shown is an unselected part of about 18,000 reagents. About 2,900 of them (16%) count as active. 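Calls are made per well; low scores hint the gene aids the LPS response, high scores that it dampens it.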 A number with no mark means an inactive call. Repeated entries: four replicate wells of each siRNA pool.

- Purpose: 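Host factors that control LPS-induced TNF expression in human macrophages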 (primary screen)
- System: human THP-1 monocytic leukaemia cells, TNF dual-luciferase reporter clone, PMA-differentiated to macrophage-like cells
- Reagents: siRNA pool against human genes, 50 nM
- Duration: LPS for 4 h, given about 3 days after siRNA transfection
- Treatment: bacterial LPS (TLR4 ligand), 10 ng/ml
- Measured: 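Ratio of firefly to renilla light, scaled to the plate median and expressed as a robust z-score per replicate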
- Scale: TNF reporter robust z-score: higher = stronger TNF reporter response to LPS
- Call rule: 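a well is active when its z-score exceeds 2.8 or falls below -1.5; control wells carry no call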

gene knocked down	TNF reporter robust z-score
NPC1 (GeneID 4864)	-0.91
NPC1 (GeneID 4864)	-0.7
NPC1 (GeneID 4864)	-0.87
NPC1 (GeneID 4864)	-0.78
HMBOX1 (GeneID 79618)	0.69
HMBOX1 (GeneID 79618)	0.02
HMBOX1 (GeneID 79618)	-0.21
HMBOX1 (GeneID 79618)	0.7
BCAT1 (GeneID 586)	0.72
BCAT1 (GeneID 586)	0.11
BCAT1 (GeneID 586)	1.04
BCAT1 (GeneID 586)	1.69
PRR22 (GeneID 163154)	-0.19
PRR22 (GeneID 163154)	-0.77
PRR22 (GeneID 163154)	-0.94
PRR22 (GeneID 163154)	-1.42
MSL2 (GeneID 55167)	3 (active)
MSL2 (GeneID 55167)	1.06
MSL2 (GeneID 55167)	-0.43
MSL2 (GeneID 55167)	1.86
DCX (GeneID 1641)	-0.07
DCX (GeneID 1641)	-0.24
DCX (GeneID 1641)	-0.32
DCX (GeneID 1641)	3.99 (active)
SIGLEC12 (GeneID 89858)	1.04
SIGLEC12 (GeneID 89858)	0.45
SIGLEC12 (GeneID 89858)	0.59
SIGLEC12 (GeneID 89858)	-0.52
NOX5 (GeneID 79400)	-0.36
NOX5 (GeneID 79400)	0.37
NOX5 (GeneID 79400)	-0.03
NOX5 (GeneID 79400)	1.06
NOX5 (GeneID 79400)	0.24
NOX5 (GeneID 79400)	-0.65
NOX5 (GeneID 79400)	-1.09
NOX5 (GeneID 79400)	0.51
CLBA1 (GeneID 122616)	-0.72
CLBA1 (GeneID 122616)	-1
CLBA1 (GeneID 122616)	-0.28
CLBA1 (GeneID 122616)	-0.6
SSMEM1 (GeneID 136263)	-0.75
SSMEM1 (GeneID 136263)	-0.85
SSMEM1 (GeneID 136263)	-0.44
SSMEM1 (GeneID 136263)	-1.07
P4HB (GeneID 5034)	-1.16
P4HB (GeneID 5034)	-0.66
P4HB (GeneID 5034)	-1.41
P4HB (GeneID 5034)	-0.72
PREPL (GeneID 9581)	-0.15
PREPL (GeneID 9581)	-0.11
PREPL (GeneID 9581)	-0.22
PREPL (GeneID 9581)	1.09
ZNF570 (GeneID 148268)	-0.83
ZNF570 (GeneID 148268)	-0.63
ZNF570 (GeneID 148268)	0.19
ZNF570 (GeneID 148268)	0.23
TMEM106A (GeneID 113277)	2.58
TMEM106A (GeneID 113277)	2.24
TMEM106A (GeneID 113277)	2.71
TMEM106A (GeneID 113277)	3.59 (active)
LARP6 (GeneID 55323)	-0.02
LARP6 (GeneID 55323)	-0.45
LARP6 (GeneID 55323)	-0.08
LARP6 (GeneID 55323)	-0.92
ELF1 (GeneID 1997)	-0.7
ELF1 (GeneID 1997)	-0.11
ELF1 (GeneID 1997)	-1.05
ELF1 (GeneID 1997)	0.56
CCDC134 (GeneID 79879)	-1.23
CCDC134 (GeneID 79879)	-0.45
CCDC134 (GeneID 79879)	-0.68
CCDC134 (GeneID 79879)	0.9
FAM181B (GeneID 220382)	0.66
FAM181B (GeneID 220382)	0.36
FAM181B (GeneID 220382)	1.77
FAM181B (GeneID 220382)	1.01

Entries above whose gene name starts with Z or z:
gene knocked down	TNF reporter robust z-score
ZNF570 (GeneID 148268)	-0.83
ZNF570 (GeneID 148268)	-0.63
ZNF570 (GeneID 148268)	0.19
ZNF570 (GeneID 148268)	0.23
